The results in this text go back to article PMC9735520.

By UniProt entry, the sequences of proteins in these tests, tags left out.
UniProt P17174: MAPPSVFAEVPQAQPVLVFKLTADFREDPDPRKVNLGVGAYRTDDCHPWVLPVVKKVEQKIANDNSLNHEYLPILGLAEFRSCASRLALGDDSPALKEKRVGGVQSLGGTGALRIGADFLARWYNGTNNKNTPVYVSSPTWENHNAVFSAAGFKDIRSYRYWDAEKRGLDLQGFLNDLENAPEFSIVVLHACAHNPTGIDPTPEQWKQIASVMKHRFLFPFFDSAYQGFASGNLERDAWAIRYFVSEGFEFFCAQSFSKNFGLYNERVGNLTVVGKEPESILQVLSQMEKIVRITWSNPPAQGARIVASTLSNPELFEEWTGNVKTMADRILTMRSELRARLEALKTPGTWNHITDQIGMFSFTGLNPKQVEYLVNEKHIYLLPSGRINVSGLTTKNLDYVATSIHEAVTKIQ
UniProt P41597: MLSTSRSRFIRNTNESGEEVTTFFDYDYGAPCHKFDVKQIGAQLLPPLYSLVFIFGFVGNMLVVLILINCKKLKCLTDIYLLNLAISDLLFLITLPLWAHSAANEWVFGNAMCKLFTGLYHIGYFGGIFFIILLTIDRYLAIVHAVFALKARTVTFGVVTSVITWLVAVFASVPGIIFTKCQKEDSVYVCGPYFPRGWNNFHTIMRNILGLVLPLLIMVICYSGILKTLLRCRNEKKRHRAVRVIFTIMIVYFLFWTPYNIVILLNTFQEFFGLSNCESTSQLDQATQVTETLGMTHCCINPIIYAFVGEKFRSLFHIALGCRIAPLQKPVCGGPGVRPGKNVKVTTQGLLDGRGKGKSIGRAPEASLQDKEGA

In this assay the target is aspartate aminotransferase 1 (GOT1) (UniProt P17174). The experiment in a line: co-IP; cells lysed in RIPA buffer 48 h after transfection; supernatant incubated with corresponding antibodies at 4 °C overnight, Protein A agarose beads, washed with ice-cold PBS, blot.

No constants are given. Whether binding was seen depends on the method and setting. Binding seen in cells or lysates may run through a third protein. Some entries that bind do so weakly or less than the wild type.

In the case of “C-C motif chemokine receptor-2 (CCR2) (from UniProt P41597 1-374)”, the binding entry is “binds”.
